From patent US7049079B1, “Coupling factor 6 inhibitor and potentiator and use thereof” (Daiichi Suntory Pharma Co.,Ltd., priority 1999, dated 2006)
At least one structure is not confirmed: it was looked up by name or label, or the drawing left a doubt. Ends that are not written are not given here.

Legend:
[1] = test system: spontaneously hypertensive rats (SHR); experiment: Arterial blood pressure of anesthetized SHR, measured in the open manner from the carotid artery; type: in vivo, rat; details: SHR 16 weeks; bradykinin 0.3, 1.0, 3.0 μg/kg cumulatively, bolus into femoral vein
Protocol: (§1) Blood pressure was measured in the open manner by inserting catheters directly into the aorta of rats anesthetized with 75 mg/kg of ketamine and 15 mg/kg of xylazine hydrochloride. Namely, two polyethylene catheters filled with physiological saline containing 20 U/ml of heparin were inserted respectively into the left carotid artery and the left femoral vein. Then the catheter inserted into the left carotid artery was connected to a pressure detector (Carrier Amplifier AP-601G, Nihon Kohden Co.). Each sample was dissolved in 200 μL of physiological saline and then administered via the vena cava.
(§2) SHR and WKY each 16 weeks of age were anesthetized and the anti-rCF6 antibody (0.3, 1.0 and 3.0 μg/kg) was administered by bolus injection into the femoral vein. Then the arterial blood pressure was measured in the open manner from the carotid artery.
(§3) Effects of the anti-rCF6 antibody on the effect of bradykinin of lowering rat blood pressure were examined. SHR and WKY each 16 weeks of age were anesthetized and bradykinin (0.3, 1.0 and 3.0 μg/kg) was cumulatively administered by bolus injection into the femoral vein. Then the arterial blood pressure was measured in the open manner from the carotid artery. […]
(§4) Effects of rCF6 on rat blood pressure were examined. […] Then the arterial blood pressure was measured in an open manner from the carotid artery.

[2] = test system: rats with normal blood pressure (WKY); experiment: Arterial blood pressure of anesthetized WKY, measured in the open manner from the carotid artery; type: in vivo, rat; details: WKY 16 weeks; bradykinin 0.3, 1.0, 3.0 μg/kg cumulatively, bolus into femoral vein
Protocol: as §1, §2, §3, §4

With “RPPGFSPFR [bradykinin, reference compound]” the “blood pressure after bradykinin” value [1] was “dose-dependently lowered” and the “blood pressure after bradykinin” value [2] was “dose-dependently lowered”.
